These are yes or no findings as the source states them, for the method shown. Binding seen in cells or lysates may run through a third protein. These calls come from enrichment with a bait or labelling near it, and not all partners need be listed. Tags and fused reporters may be left off the sequences shown.
Biological target: AKT1 (UniProt P31749)
Experiment: Flag immunoprecipitation of TK1 immune complexes from androgen independent tumors, mass spectrometry

Chains of the proteins cited; added tags and fusions are not shown.
UniProt P31749: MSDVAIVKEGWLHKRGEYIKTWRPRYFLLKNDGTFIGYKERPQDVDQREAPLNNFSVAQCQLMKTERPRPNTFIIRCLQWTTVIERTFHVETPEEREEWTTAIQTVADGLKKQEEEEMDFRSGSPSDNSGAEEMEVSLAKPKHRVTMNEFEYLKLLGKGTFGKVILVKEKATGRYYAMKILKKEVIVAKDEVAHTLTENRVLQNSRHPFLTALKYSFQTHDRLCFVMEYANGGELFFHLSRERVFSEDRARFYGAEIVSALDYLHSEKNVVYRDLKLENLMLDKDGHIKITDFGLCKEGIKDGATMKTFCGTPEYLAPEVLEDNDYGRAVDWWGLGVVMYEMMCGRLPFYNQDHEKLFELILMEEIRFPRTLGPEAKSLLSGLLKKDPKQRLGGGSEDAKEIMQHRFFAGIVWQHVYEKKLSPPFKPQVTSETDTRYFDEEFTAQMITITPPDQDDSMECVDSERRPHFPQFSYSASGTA

B1: Flag-tagged thymidine kinase 1 (TK1) (enzyme, human, UniProt P04183 1-234, looked up)
chain: MSCINLPTVLPGSPSKTRGQIQVILGPMFSGKSTELMRRVRRFQIAQYKCLVIKYAKDTRYSSSFCTHDRNTMEALPACLLRDVAQEALGVAVIGIDEGQFFPDIVEFCEAMANAGKTVIVAALDGTFQRKPFGAILNLVPLAESVVKLTAVCMECFREAAYTKRLGTEKEVEVIGGADKYHSVCRLCYFKKASGQPAGPDNKENCPVPGKPGEAVAARKLFAPQQILQCSPAN
binding: binds

— patent US20110206689A1, “Molecular Determinants Associated With Prostate Cancer And Methods Of Use Thereof” (Dana-Farber Cancer Institute, Inc., priority 2010, published 2011)
